Measured values taken from patent publication US5290576A (Pliva Farmaceutska, priority 1990, dated 1994).

Assay: general procedure: solution-phase peptide synthesis; Boc-Tyr-OSu (active ester), triethylamine in DMF
Details: late stage modification step

Substance: tert-Butyloxycarbonyl-L-tyrosyl-peptidoglycan monomer
- step yield: 46%
